{"source": "PubChem BioAssay AID1508597 (Cure First, 2020)", "assay": "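Knock-downs altering ovarian cancer cell survival with or without PARP inhibitor rucaparib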 (primary screen)", "cell system": "human ovarian carcinoma lines grown from tumours: OCI-P5x (papillary serous) and OCI-C5x (clear cell)", "knock-down reagent": "siRNA pool against human genes, 1.25 pmol siRNA per well", "timing": "72 h or 96 h, depending on the cell culture", "conditions": "rucaparib 20 µM (about IC30) or vehicle, present until read-out", "rucaparib or vehicle": "Rucaparib", "cell line": "OCI-P5x (serous)", "measurement": "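Luminescent ATP-based viability assay read 72 or 96 h after transfection, depending on culture, given as normalised percent viability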", "reading the numbers": "viability, normalised: higher = more viable cells remaining", "call rule": "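Active when normalised viability falls below 80 percent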", "meaning of the calls": "active = viability under 80%; inactive = viability 80% or more", "note": "This is a random part of the about 2,100 reagents, under one of the conditions tested. 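Calls flag viability under 80% in either arm, not effects specific to rucaparib; the reference for percent is not stated.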 Not given: the 100% reference."}
{"target gene":"DNMT1","technical replicate":"1","viability, normalised (%)":80.4,"call":"inactive"}
{"target gene":"DNMT1","technical replicate":"2","viability, normalised (%)":78.1,"call":"active"}
{"target gene":"DNMT1","technical replicate":"3","viability, normalised (%)":70.2,"call":"active"}
{"target gene":"MET","technical replicate":"1","viability, normalised (%)":128,"call":"inactive"}
{"target gene":"MET","technical replicate":"2","viability, normalised (%)":114,"call":"inactive"}
{"target gene":"MET","technical replicate":"3","viability, normalised (%)":117,"call":"inactive"}
{"target gene":"SMPD3","technical replicate":"1","viability, normalised (%)":52.2,"call":"active"}
{"target gene":"SMPD3","technical replicate":"2","viability, normalised (%)":42.3,"call":"active"}
{"target gene":"SMPD3","technical replicate":"3","viability, normalised (%)":47.3,"call":"active"}
{"target gene":"PLCE1","technical replicate":"1","viability, normalised (%)":52.2,"call":"active"}
{"target gene":"PLCE1","technical replicate":"2","viability, normalised (%)":45.1,"call":"active"}
{"target gene":"PLCE1","technical replicate":"3","viability, normalised (%)":55.7,"call":"active"}
{"target gene":"PRKXP1","technical replicate":"1","viability, normalised (%)":106,"call":"inactive"}
{"target gene":"PRKXP1","technical replicate":"2","viability, normalised (%)":110,"call":"inactive"}
{"target gene":"PRKXP1","technical replicate":"3","viability, normalised (%)":114,"call":"inactive"}
{"target gene":"PTAR1","technical replicate":"1","viability, normalised (%)":42.3,"call":"active"}
{"target gene":"PTAR1","technical replicate":"2","viability, normalised (%)":50.3,"call":"active"}
{"target gene":"PTAR1","technical replicate":"3","viability, normalised (%)":46.6,"call":"active"}
{"target gene":"ERRFI1","technical replicate":"1","viability, normalised (%)":54.7,"call":"active"}
{"target gene":"ERRFI1","technical replicate":"2","viability, normalised (%)":63.5,"call":"active"}
{"target gene":"ERRFI1","technical replicate":"3","viability, normalised (%)":70.4,"call":"active"}
{"target gene":"PDGFRA","technical replicate":"1","viability, normalised (%)":111,"call":"inactive"}
{"target gene":"PDGFRA","technical replicate":"2","viability, normalised (%)":129,"call":"inactive"}
{"target gene":"PDGFRA","technical replicate":"3","viability, normalised (%)":120,"call":"inactive"}
{"target gene":"CAMKV","technical replicate":"1","viability, normalised (%)":57.4,"call":"active"}
{"target gene":"CAMKV","technical replicate":"2","viability, normalised (%)":63.9,"call":"active"}
{"target gene":"CAMKV","technical replicate":"3","viability, normalised (%)":67.9,"call":"active"}
{"target gene":"STK38L","technical replicate":"1","viability, normalised (%)":99.9,"call":"inactive"}
{"target gene":"STK38L","technical replicate":"2","viability, normalised (%)":99.6,"call":"inactive"}
{"target gene":"STK38L","technical replicate":"3","viability, normalised (%)":77.2,"call":"active"}
{"target gene":"MOS","technical replicate":"1","viability, normalised (%)":89.3,"call":"inactive"}
{"target gene":"MOS","technical replicate":"2","viability, normalised (%)":82,"call":"inactive"}
{"target gene":"MOS","technical replicate":"3","viability, normalised (%)":86.4,"call":"inactive"}
